Reference: US20160130315A1

Sequences of proteins named here, by UniProt entry; tags and fusion partners are left off. A change or cut given only in a name is not applied to a line headed by its entry.
UniProt O14786: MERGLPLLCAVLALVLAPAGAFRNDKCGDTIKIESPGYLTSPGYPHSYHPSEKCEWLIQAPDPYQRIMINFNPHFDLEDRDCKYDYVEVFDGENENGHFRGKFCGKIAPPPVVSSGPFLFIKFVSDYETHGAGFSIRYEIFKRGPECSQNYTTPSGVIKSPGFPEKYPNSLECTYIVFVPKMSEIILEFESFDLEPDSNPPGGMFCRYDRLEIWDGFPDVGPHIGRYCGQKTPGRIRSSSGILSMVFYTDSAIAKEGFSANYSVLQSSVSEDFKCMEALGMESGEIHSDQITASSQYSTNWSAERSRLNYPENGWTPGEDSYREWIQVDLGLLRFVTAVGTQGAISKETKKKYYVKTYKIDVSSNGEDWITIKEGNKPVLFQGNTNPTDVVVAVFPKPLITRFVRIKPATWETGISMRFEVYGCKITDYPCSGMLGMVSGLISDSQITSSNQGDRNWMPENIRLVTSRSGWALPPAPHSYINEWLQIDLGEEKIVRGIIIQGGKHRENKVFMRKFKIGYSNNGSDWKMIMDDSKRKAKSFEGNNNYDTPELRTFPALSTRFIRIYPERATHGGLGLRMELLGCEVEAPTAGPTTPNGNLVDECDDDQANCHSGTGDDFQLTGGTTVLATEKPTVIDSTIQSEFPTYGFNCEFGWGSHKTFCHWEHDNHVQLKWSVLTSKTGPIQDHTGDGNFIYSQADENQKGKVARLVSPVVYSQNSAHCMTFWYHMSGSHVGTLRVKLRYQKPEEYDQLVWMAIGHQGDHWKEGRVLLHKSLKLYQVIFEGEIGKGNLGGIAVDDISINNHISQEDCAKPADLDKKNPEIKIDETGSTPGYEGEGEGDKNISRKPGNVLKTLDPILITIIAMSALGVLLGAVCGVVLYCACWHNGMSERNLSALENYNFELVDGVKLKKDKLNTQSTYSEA
UniProt O60462: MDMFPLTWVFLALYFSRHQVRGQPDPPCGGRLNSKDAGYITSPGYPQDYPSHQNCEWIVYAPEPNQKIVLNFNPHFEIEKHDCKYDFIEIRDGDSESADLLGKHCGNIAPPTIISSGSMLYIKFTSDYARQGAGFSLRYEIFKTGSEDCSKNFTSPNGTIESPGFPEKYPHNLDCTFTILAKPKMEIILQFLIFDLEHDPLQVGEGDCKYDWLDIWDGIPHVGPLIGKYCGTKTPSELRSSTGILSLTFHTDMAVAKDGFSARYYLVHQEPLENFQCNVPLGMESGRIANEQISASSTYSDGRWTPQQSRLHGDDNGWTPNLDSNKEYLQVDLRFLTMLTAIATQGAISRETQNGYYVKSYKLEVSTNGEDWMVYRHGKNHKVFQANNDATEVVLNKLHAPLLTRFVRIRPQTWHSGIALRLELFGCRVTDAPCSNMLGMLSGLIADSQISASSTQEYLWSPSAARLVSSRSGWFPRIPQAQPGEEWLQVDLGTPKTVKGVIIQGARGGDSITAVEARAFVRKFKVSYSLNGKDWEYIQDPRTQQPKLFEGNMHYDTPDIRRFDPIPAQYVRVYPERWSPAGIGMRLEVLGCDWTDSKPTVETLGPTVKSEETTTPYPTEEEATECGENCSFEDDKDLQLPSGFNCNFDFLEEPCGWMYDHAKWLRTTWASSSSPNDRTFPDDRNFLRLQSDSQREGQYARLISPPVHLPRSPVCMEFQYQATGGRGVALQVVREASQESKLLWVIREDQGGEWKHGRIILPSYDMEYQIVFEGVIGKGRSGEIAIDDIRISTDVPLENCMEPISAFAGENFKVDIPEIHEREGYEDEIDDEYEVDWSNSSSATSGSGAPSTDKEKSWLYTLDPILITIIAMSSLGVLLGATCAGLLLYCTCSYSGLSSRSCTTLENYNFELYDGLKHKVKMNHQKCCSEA
UniProt Q13275: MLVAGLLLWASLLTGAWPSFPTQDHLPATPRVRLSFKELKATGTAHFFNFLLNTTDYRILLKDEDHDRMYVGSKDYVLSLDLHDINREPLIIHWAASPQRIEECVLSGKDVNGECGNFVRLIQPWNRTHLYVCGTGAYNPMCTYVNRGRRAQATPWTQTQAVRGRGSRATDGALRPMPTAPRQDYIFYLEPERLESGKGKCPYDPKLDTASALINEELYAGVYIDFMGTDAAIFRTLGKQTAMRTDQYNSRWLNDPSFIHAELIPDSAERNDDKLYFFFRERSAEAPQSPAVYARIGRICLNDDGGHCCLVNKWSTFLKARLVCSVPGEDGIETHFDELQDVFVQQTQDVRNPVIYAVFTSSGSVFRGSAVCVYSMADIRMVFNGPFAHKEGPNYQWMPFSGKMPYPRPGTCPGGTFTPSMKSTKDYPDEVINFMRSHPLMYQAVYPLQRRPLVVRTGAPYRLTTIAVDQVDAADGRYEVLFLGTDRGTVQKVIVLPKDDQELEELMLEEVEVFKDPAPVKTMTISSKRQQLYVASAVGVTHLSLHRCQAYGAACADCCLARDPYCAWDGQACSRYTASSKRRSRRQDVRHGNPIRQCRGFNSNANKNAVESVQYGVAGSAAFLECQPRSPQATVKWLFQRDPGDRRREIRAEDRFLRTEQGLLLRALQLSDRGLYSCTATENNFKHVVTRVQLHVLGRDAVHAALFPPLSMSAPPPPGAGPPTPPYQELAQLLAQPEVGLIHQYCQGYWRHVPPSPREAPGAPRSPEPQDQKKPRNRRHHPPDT

Legend:
[1] = target: b1b2 domains (273-586) of neuropilin-1 (UniProt O14786); test: ELISA, plate-bound b1b2 domain
[2] = target: b1b2 domains (275-595) of neuropilin-2 (UniProt O60462); test: ELISA, plate-bound b1b2 domain
[3] = target: b1b2 domains (273-586) of neuropilin-1 (UniProt O14786); test: ELISA: target coated on the plate, biotinylated binder at 100 nM, anti-biotin-AP and pNPP, absorbance at 405 nm [B]
[4] = target: b1b2 domains (275-595) of neuropilin-2 (UniProt O60462); test: as above

Measured: binding

Sema3F (19-779) (from UniProt Q13275) (ligand)
binds: all assays above

No constants are given. Whether binding was seen depends on the method and setting. Binding can be weak; no strength is given.
